# Assay results as given in PubChem BioAssay AID2099 (Broad Institute, 2009).
# Protein sequences, listed by entry. Tags and fused reporters are not part of them. Residues count along the entry.
# UniProt Q9H3R0, 1-420 limits assumed: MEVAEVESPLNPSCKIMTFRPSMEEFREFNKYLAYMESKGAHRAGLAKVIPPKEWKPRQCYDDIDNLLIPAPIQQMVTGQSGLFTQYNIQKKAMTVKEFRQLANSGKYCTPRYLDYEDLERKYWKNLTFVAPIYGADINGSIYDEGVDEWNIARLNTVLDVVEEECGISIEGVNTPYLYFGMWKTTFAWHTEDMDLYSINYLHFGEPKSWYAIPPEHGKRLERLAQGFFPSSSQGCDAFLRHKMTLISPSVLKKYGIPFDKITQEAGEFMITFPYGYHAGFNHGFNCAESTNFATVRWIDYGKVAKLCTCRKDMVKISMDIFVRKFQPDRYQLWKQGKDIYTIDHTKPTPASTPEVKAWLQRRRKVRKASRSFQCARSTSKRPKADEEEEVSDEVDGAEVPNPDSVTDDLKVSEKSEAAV
# Screen size: about 330,000 compounds; about 230 (0.07%) were called active. The inconclusive results got no clear call from the source; some entries with a clear call stand among them for comparison.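 The calls were made as follows: active = more than half of a compound's replicate wells show inhibition beyond 50%, single wells judged on their own value; inconclusive = some, but no more than half, of replicates pass 50% inhibition; inactive = no replicate passes 50% inhibition.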
# Target: Lysine-specific demethylase 4C (Homo sapiens) (UniProt Q9H3R0)
# Test: inhibitors of GASC-1 histone demethylase, primary screen, biochemical, fluorescence, DELFIA europium (AID 2099);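 also: signal counts dimethyl H3K9 product captured on neutravidin plate; 0% = median of DMSO wells and 100% = 0.3 times that DMSO median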
# Conditions: GST-JMJD2C(1-420) H3K9me3 demethylation, at 2.35 µM, hits give high values
row,SMILES,inhibition
1,O=C(Cn1cnc2ccccc2c1=O)NCCC(=O)Nc1ccc(F)cc1,inactive: 6.63%
2,N[C@@H](C(=O)N[C@@H]1C(=O)N2C(C(=O)O)=C(Cl)CS[C@H]12)c1ccccc1,inconclusive: -55.7%
3,CC1C(=O)C(C)C(c2ccc([N+](=O)[O-])cc2)NC1c1ccc([N+](=O)[O-])cc1 (stereo unspecified),inactive: 7.94%
4,CC(C)NC(=S)Nc1c(N)[nH]c(=O)[nH]c1=O,inconclusive: -71.9%
5,CC(=O)c1cccc(NC(=O)CCCNC(=O)c2ccc(Cl)cc2)c1,inconclusive: -64.1%
6,CCC(C)C(NC(=O)[C@@H](NC(=O)c1ccccc1F)C(C)C)C(=O)OC (stereo partly specified),inconclusive: -51.2%
7,Nc1nc2ccc(C(=O)NC3CCCCC3)cc2s1,inactive: 8.08%
8,CCC(C)(C)C1CCc2c(sc(N)c2C(N)=O)C1 (stereo unspecified),inconclusive: -53.8%
9,CC(OC(=O)COc1ccc(C#N)cc1)C(=O)Nc1ccc(Cl)cn1 (stereo unspecified),inconclusive: -84.1%
10,Cc1ccc(OCCSc2nc3ccccc3n2CC(=O)O)cc1C,inactive: -0.355%
11,O=C(OCCN=C1NS(=O)(=O)c2ccccc21)c1cccs1,inactive: 4.76%
12,COc1ccc2ccccc2c1/C=N/n1cnnc1,inactive: 0.625%
13,COc1cccc(C(=O)NC(Cc2ccccc2)c2ccc3c(c2)OCCCO3)c1 (stereo unspecified),inconclusive: -267%
14,CCC1OC2(C)OC(=N)C1(C#N)C(C#N)(C#N)C2c1ccccc1 (stereo unspecified),inactive: 2.97%
15,CCOC(=O)SC1=N/C(=C\c2ccc(N(C)C)cc2)C(=O)S1,inconclusive: -194%
16,O=C(NCC(=O)N(c1ccccc1)C(C(=O)NC1CCCC1)c1cccnc1)c1ccco1 (stereo unspecified),inconclusive: -72.2%
17,CC[C@]12c3[nH]c4ccccc4c3CCN1C(=O)C(CC(=O)NCCCOC)C[C@@H]2C(=O)N1CCN(C(=O)C2CC2)CC1 (stereo partly specified),active: 52.7%
18,COc1ccc(-c2ccc(CCC(=O)O)n2NC(=O)c2ccc(C(C)(C)C)cc2)cc1,inconclusive: -165%
19,Cn1c(=NC(=O)c2cnccn2)sc2ccccc21,inconclusive: -53%
20,COc1ccccc1NC(=O)C1(c2ccccc2)CCCC1,inactive: -12.4%
21,Cc1ccc(CN2CCN(Cc3cnc(N4CCOCC4)s3)CC2CCO)o1 (stereo unspecified),inactive: 14.1%
22,O=[N+]([O-])c1cc(-c2cnc3ccccc3n2)ccc1Oc1ccc(F)cc1,active: 62.3%

row,SMILES,inhibition
1,c1ccc(-c2nnc3sc(Cc4cccs4)nn23)cc1,inconclusive: -133%
2,CCN(CCCNC(=O)COc1cc(=O)n(CC)c2ccccc12)Cc1ccccc1,inactive: 12.3%
3,Cc1cc(=O)oc2cc(OCC(=O)N3CC[C@@]4(O)CCCC[C@H]4C3)c(Cl)cc12,inconclusive: -51.6%
4,O=C1c2oc3ccccc3c(=O)c2C(c2cccnc2)N1Cc1ccco1 (stereo unspecified),inconclusive: -64.1%
5,Cc1cccn2c(=O)nc(SCC(=O)NCc3ccc4c(c3)OCO4)nc12,inconclusive: -139%
6,Nc1cc(-c2ccncc2)c[nH]c1=O,inconclusive: -64.6%
7,CCNc1nc(NCC)nc(SCCOC(=O)c2ccccc2)n1,inactive: 0.914%
8,CSc1nc2ccccc2n1Cc1c(Cl)cccc1Cl,inactive: 9.81%
9,O=C(Nc1ccc2ncccc2c1)Nc1ccc2ncccc2c1,inconclusive: -53.4%
10,CCc1ccc(S(=O)(=O)Nc2cc(SCC(=O)O)c(O)c3ccccc23)cc1,inconclusive: -50.4%
11,CN(C)CCN(C(=O)c1cccs1)c1nc2cc3c(cc2s1)OCCO3,inactive: -4.51%
12,COc1cccc(C(=O)Nc2cccc(C(=O)NCC(C)C)c2)c1,inactive: 11%
13,Cc1cc(C)c(C#N)c(SCC(=O)c2cc(C)n(CCc3ccccc3)c2C)n1,inconclusive: -297%
14,CCCCCCSc1ccc([C@H]2N[C@@](Cc3ccccc3)(C(=O)OC)[C@H]3C(=O)N(C)C(=O)[C@@H]23)cc1,inconclusive: -318%
15,CCC(=O)N1CCN(c2ccccc2NC(=O)c2ccc(OC)c(Cl)c2)CC1,inconclusive: -200%
16,COc1ccc(/C=C/C(=O)C(C)(C)C)cc1OC,inactive: 0.392%
17,CC(NC(=S)Nc1ccc(F)cc1)c1ccccc1 (stereo unspecified),inconclusive: -51.4%
18,COc1cccc(C(=O)NCCS(=O)(=O)NCc2cccs2)c1,inconclusive: -163%
19,COc1ccc(NC(=O)C2CCN(S(=O)(=O)c3ccc(N4CCCC4=O)cc3)CC2)cc1OC,inconclusive: -138%
20,CC(C)CNC(=O)C1CCN(c2ccc(S(=O)(=O)N3CCOCC3)cc2Cl)CC1,inconclusive: -160%
21,O=C(CSc1nnc(-c2ccc(F)cc2)n1CC1CCCO1)NCc1ccco1 (stereo unspecified),inactive: 1.25%
22,OC[C@H]1O[C@H](OCc2ccccc2)[C@H](O[C@@H]2OC[C@@H](O)[C@H](O)[C@H]2O)[C@@H](O)[C@@H]1O,inconclusive: -185%

row,SMILES,inhibition
1,O=C(Nc1ccccc1C(=O)Nc1ccncc1)c1cccc([N+](=O)[O-])c1,inconclusive: -62%
2,COc1cc(NC(=O)c2ccco2)c(OC)cc1NC(=O)CSc1ncc(-c2ccc(F)cc2)[nH]1,inactive: 26.7%
3,CC1(C)Cc2c(C#N)c(N3CCN(C(=O)c4ccco4)CC3)nc(-c3ccco3)c2CS1,inactive: -7.08%
4,Cc1ccc(Cl)c(OCC(=O)OCC(=O)NC2CCCc3ccccc32)c1 (stereo unspecified),inconclusive: -51.3%
5,CCc1ccc(NC(=O)[C@H](Cc2ccccc2)NC(=O)C2CCN(C(=O)[C@@H](N)CC(C)C)CC2)cc1,inconclusive: -67.4%
6,COc1ccc(S(=O)(=O)NC(N)=NCCc2ccccc2OC)cc1,inconclusive: -68.3%
7,CCc1cc(=O)oc2cc(OCC(=O)NCc3ccccn3)ccc12,inconclusive: -92.5%
8,Cc1nc2ccccc2c(=O)n1-c1ccc(NS(=O)(=O)c2ccccc2)cc1,inconclusive: -197%
9,CCN(C[C@H]1N[C@@](CC)(C(=O)OC)[C@H]2C(=O)N(C)C(=O)[C@@H]12)S(=O)(=O)c1ccc(OC)cc1,inactive: 12.9%
10,COc1ccc(NC(=S)NCc2ccc(S(N)(=O)=O)cc2)cc1OC,active: 56.2%
11,CCN1C(=O)C(C(=O)Nc2ccc(OC)cc2)C2CC1(C)Oc1ccccc12 (stereo unspecified),active: 54.2%
12,COc1ccc(C(=O)c2ccc(OC)cc2OC)cc1,inactive: -0.365%
13,CCOc1ccc(NC(=O)CN(C)C(=O)c2cc(S(=O)(=O)N(C)C)ccc2N2CCCC2)cc1OCC,inconclusive: -58.3%
14,O=C(CN(C1CCCCC1)S(=O)(=O)c1ccc(F)cc1)NCCCO,inconclusive: -242%
15,O=S(=O)(NCc1ccccc1)c1ccc(-c2cnc(C3CC3)o2)cc1,inactive: -43.8%
16,CCOC(=O)N1CCC(c2nc3ccccc3[nH]2)CC1,active: 53.4%
17,CCCn1c(NC(=O)C2CCN(S(=O)(=O)c3cccs3)CC2)nc2ccccc21,inconclusive: -57.3%
18,Cc1cccc2sc(N(CCN(C)C)C(=O)C3CCN(S(=O)(=O)c4cccs4)CC3)nc12,inactive: 0.825%
19,O=c1[nH]c(Nc2nc3ccccc3o2)nc2c1CCCC2,inactive: -2.75%
20,C=CCC1NS(=O)(=O)OC2CCCC12 (stereo unspecified),inconclusive: -235%
21,COc1ccc(C(=O)NNC(=O)CCCCC(=O)NNC(=O)c2ccc(OC)cc2)cc1,inactive: 11.3%
22,COC(=O)CNC(=O)COC(=O)c1cc(Cl)cc(Cl)c1N,inactive: -0.659%

# Random excerpt: 2 compounds from above, in no set order.
row,SMILES,inhibition
5,CCc1ccc(NC(=O)[C@H](Cc2ccccc2)NC(=O)C2CCN(C(=O)[C@@H](N)CC(C)C)CC2)cc1,inconclusive: -67.4%
18,Cc1cccc2sc(N(CCN(C)C)C(=O)C3CCN(S(=O)(=O)c4cccs4)CC3)nc12,inactive: 0.825%

# Remaining list, next part.

row,SMILES,inhibition
1,CCC(=O)N/C(=N\OCc1ccc(F)cc1)c1nonc1NC(=O)CC,inconclusive: -64.1%
2,COc1ccc(CNC(=O)c2cc3c(=O)n4ccccc4nc3n(Cc3cccnc3)c2=N)cc1,inconclusive: -75.8%
3,CN1C(=O)CC(c2ccco2)Sc2ccccc21 (stereo unspecified),inconclusive: -162%
4,NC(=O)C1CCN(C(=O)c2cnn(-c3ccccc3)c2NC(=O)c2cccc(F)c2)CC1,active: 75.3%
5,Cc1cc(NC(=O)C2CCN(C(=O)c3ccco3)CC2)ccc1Br,inconclusive: -157%
6,Cc1cc(C)n(S(=O)(=O)Cc2ccccc2)n1,inconclusive: -159%
7,CCc1c(O)nc(SCC(=O)N2CCc3cc(OC)c(OC)cc3[C@@H]2C)[nH]c1=O,inconclusive: -382%
8,Cc1ccccc1NS(=O)(=O)c1ccc(C(=O)N2CC(C)OC(C)C2)cc1 (stereo unspecified),inconclusive: -171%
9,O=C(Nc1ccccc1Cl)c1cc(S(=O)(=O)N2CCCCC2)ccc1N1CCOCC1,inactive: -3.73%
10,CCOc1ccc(NC(=O)CC2C(=O)N(c3ccccc3)C(=O)N2CCc2cccs2)cc1 (stereo unspecified),inactive: 2.46%
11,CC[C@@H](C)[C@@H]1CN([C@@H](C)CN2CCC[C@H]2CN2C(N)=NC[C@H]2CC(C)C)C(=N)N1CCc1ccc(Cl)c(Cl)c1,inactive: -5.06%
12,COC(=O)c1ccc(NS(=O)(=O)NC(=O)c2cn(C)c3ccccc23)cc1,inconclusive: -87.9%
13,Nc1c(C(=O)NCCc2ccccc2)nnn1Cc1ccc(Br)cc1F,inactive: 0.088%
14,COc1cc(C2C3=C(CCCC3=O)Nc3ccc4ncccc4c32)ccc1O (stereo unspecified),inconclusive: -53.6%
15,CN1CCN(S(=O)(=O)c2ccc(NC(=O)c3ccc(Br)o3)cc2)CC1,inactive: 1.56%
16,COc1ccccc1CNC(=O)c1sccc1-c1ccccc1,inconclusive: -132%
17,O=C(Oc1ccccc1C(=O)Oc1ccccc1)c1ccco1,inconclusive: -175%
18,CCCCOc1ccc(C(=O)Nc2ccc(N3CCN(C(C)=O)CC3)cc2)cc1,active: 61.2%
19,O=C(CSc1nnc2ccccn12)NNC(=O)c1ccc(Cl)cc1,inactive: -6.22%
20,Cc1ccc(C)c(S(=O)(=O)Nc2cc3c4c(c2)CC(=O)N4CCC3)c1,inconclusive: -215%
